Laboratory results: US6686445B1 (Arizona Board of Regents, acting for and on behalf of …, priority 1997, dated 2004)
Where a SMILES comes first, the peptide text is derived from it. [ ]: non-standard residue; d: D form. The star is where a group is joined. X1 = COC1=CC(=O)N(C(=O)[C@@H](O*)C(C)C)[C@H]1Cc1ccccc1; NH(2-(2-pyridyl)ethyl) = c1ccc(CCN*)nc1; NH(4-Br-phenethyl) = Brc1ccc(CCN*)cc1; NMe2Val = CC(C)[C@@H](C(=O)*)N(C)C; X5 = O=[N+]([O-])c1ccc(CCN*)cc1; NH(thiazol-2-yl) = c1csc(N*)n1; NHPhenethyl = c1ccc(CCN*)cc1; NMeV = CN[C@H](C(=O)O)C(C)C; Hiv = CC(C)[C@H](O)C(=O)O; X2 = c1ccc2ncc(N*)cc2c1; X4 = COc1ccc(CCN*)cc1OC; X3 = c1ccc2sc(N*)nc2c1; X7 = Clc1cccc(CCN*)c1; NHBn = c1ccc(CN*)cc1; X6 = Fc1ccc(CCN*)cc1; NHPh = c1ccc(N*)cc1; X8 = Clc1ccccc1CCN*

Tests used:
[1] = system: NCI 60-cell-line in vitro human tumor panel; conditions: GI50-Compare correlation with dolastatin 15
Experimental: All compounds synthesized were first evaluated for in vitro antitumor activity against murine P388 lymphocytic leukemia cells and against murine L1210 leukemia cells and human CA46 Burkitt lymphoma cells using techniques described by Hamel & Lin (see: HAMEL, E., and LIN, C. M., […], Interaction of combretastatin, a new plant-derived antimitotic agent, with tubulin, Biochemical Pharmacology, 32, 3864). The compounds were also evaluated in the NCI's human tumor 60-cell-line in intro primary screen as described by Monks et al. (see: MONKS, A., SCUDIERO, et al., 1991, New colorimetric cytotoxicity assay for anticancer drug screening, Journal of the National Cancer Institute, 83, 757). Data analyses were performed using methods described by Boyd and Paull (see: BOYD, M. R., et al., 1995, Some practical considerations and applications of the National Cancer Institute in vitro anticancer drug discovery screen, Drug Development Research, 34, 91). A tubulin polymerization inhibition assay was performed according to a modified version of the procedure used previously and described by Muzaffar et al. (see: MUZAFFAR, A., et al., 1990, Antitubulin effects of derivatives of 3-demethylthiocolchicine, methylthio esters of natural colchicinoids, and thioketones derived from thiocolchicine, Comparison with colchicine, Journal of Medicinal Chemistry, 33, 567) to evaluate the effects of dolastatin 15 on cellular microtubule assembly. The new assay for these compounds employed a drug-tubulin preincubation (15 min.) with 10 μM tubulin in 0.8 M glutamate at 30° C., followed by addition of GTP and incubation (20 min.) at 30° C., with tubulin polymerization monitored turbidimetrically in GILFORD recording spectrophotometers.

[2] = general procedure: solution-phase peptide synthesis; DEPC; conditions: coupling step

| Molecule | Dolastatin 15 Compare Coefficient [1] | step yield [2] |
| --- | --- | --- |
| COC1=CC(=O)N(C(=O)[C@@H](OC(=O)[C@@H]2CCCN2C(=O)[C@@H]2CCCN2C(=O)[C@H](C(C)C)N(C)C(=O)[C@@H](NC(=O)[C@H](C(C)C)N(C)C)C(C)C)C(C)C)[C@H]1Cc1ccccc1 [Compound 1, dolastatin 15] (NMe2Val-V[NMeV]PP-X1) | 1.00 | – |
| CC(C)[C@H](NC(=O)[C@H](C(C)C)N(C)C)C(=O)N(C)[C@H](C(=O)N1CCC[C@H]1C(=O)N1CCC[C@H]1C(=O)O[C@H](C(=O)Nc1ccccc1)C(C)C)C(C)C [Compound 12a] (NMe2Val-V[NMeV]PP[Hiv]-NHPh) | 0.81 | – |
| CC(C)[C@H](NC(=O)[C@H](C(C)C)N(C)C)C(=O)N(C)[C@H](C(=O)N1CCC[C@H]1C(=O)N1CCC[C@H]1C(=O)O[C@H](C(=O)NCc1ccccc1)C(C)C)C(C)C [Compound 12b] (NMe2Val-V[NMeV]PP[Hiv]-NHBn) | 0.74 | – |
| CC(C)[C@H](NC(=O)[C@H](C(C)C)N(C)C)C(=O)N(C)[C@H](C(=O)N1CCC[C@H]1C(=O)N1CCC[C@H]1C(=O)O[C@H](C(=O)NCCc1ccccc1)C(C)C)C(C)C [Compound 12c, N-[(2S)-O-[(N,N-Dimethyl-valyl)-valyl-(N-methyl-valyl)-prolyl-prolyl]-2-hydroxyisovalerlyl]-2-phenethylamide] (NMe2Val-V[NMeV]PP[Hiv]-NHPhenethyl) | 0.77 | – |
| CC(C)[C@H](NC(=O)[C@H](C(C)C)N(C)C)C(=O)N(C)[C@H](C(=O)N1CCC[C@H]1C(=O)N1CCC[C@H]1C(=O)O[C@H](C(=O)NCCc1ccc(F)cc1)C(C)C)C(C)C [Compound 12d] (NMe2Val-V[NMeV]PP[Hiv]-X6) | 0.77 | – |
| CC(C)[C@H](NC(=O)[C@H](C(C)C)N(C)C)C(=O)N(C)[C@H](C(=O)N1CCC[C@H]1C(=O)N1CCC[C@H]1C(=O)O[C@H](C(=O)NCCc1cccc(Cl)c1)C(C)C)C(C)C [Compound 12f] (NMe2Val-V[NMeV]PP[Hiv]-X7) | 0.78 | – |
| CC(C)[C@H](NC(=O)[C@H](C(C)C)N(C)C)C(=O)N(C)[C@H](C(=O)N1CCC[C@H]1C(=O)N1CCC[C@H]1C(=O)O[C@H](C(=O)NCCc1ccccc1Cl)C(C)C)C(C)C [Compound 12g] (NMe2Val-V[NMeV]PP[Hiv]-X8) | 0.78 | – |
| CC(C)[C@H](NC(=O)[C@H](C(C)C)N(C)C)C(=O)N(C)[C@H](C(=O)N1CCC[C@H]1C(=O)N1CCC[C@H]1C(=O)O[C@H](C(=O)NCCc1ccc(Br)cc1)C(C)C)C(C)C [Compound 12h] (NMe2Val-V[NMeV]PP[Hiv]-{NH(4-Br-phenethyl)}) | 0.78 | – |
| CC(C)[C@H](NC(=O)[C@H](C(C)C)N(C)C)C(=O)N(C)[C@H](C(=O)N1CCC[C@H]1C(=O)N1CCC[C@H]1C(=O)O[C@H](C(=O)NCCc1ccc([N+](=O)[O-])cc1)C(C)C)C(C)C [Compound 12i] (NMe2Val-V[NMeV]PP[Hiv]-X5) | 0.79 | – |
| COc1ccc(CCNC(=O)[C@@H](OC(=O)[C@@H]2CCCN2C(=O)[C@@H]2CCCN2C(=O)[C@H](C(C)C)N(C)C(=O)[C@@H](NC(=O)[C@H](C(C)C)N(C)C)C(C)C)C(C)C)cc1OC [Compound 12j] (NMe2Val-V[NMeV]PP[Hiv]-X4) | 0.78 | – |
| CC(C)[C@H](NC(=O)[C@H](C(C)C)N(C)C)C(=O)N(C)[C@H](C(=O)N1CCC[C@H]1C(=O)N1CCC[C@H]1C(=O)O[C@H](C(=O)NCCc1ccccn1)C(C)C)C(C)C [Compound 12k] (NMe2Val-V[NMeV]PP[Hiv]-{NH(2-(2-pyridyl)ethyl)}) | 0.81 | – |
| COC(=O)[C@H](Cc1ccccc1)NC(=O)[C@@H](OC(=O)[C@@H]1CCCN1C(=O)[C@@H]1CCCN1C(=O)[C@H](C(C)C)N(C)C(=O)[C@@H](NC(=O)[C@H](C(C)C)N(C)C)C(C)C)C(C)C [Compound 12m] (NMe2Val-V[NMeV]PP[Hiv]F-OMe) | 0.74 | – |
| COC(=O)[C@H](CCSC)NC(=O)[C@@H](OC(=O)[C@@H]1CCCN1C(=O)[C@@H]1CCCN1C(=O)[C@H](C(C)C)N(C)C(=O)[C@@H](NC(=O)[C@H](C(C)C)N(C)C)C(C)C)C(C)C [Compound 12n] (NMe2Val-V[NMeV]PP[Hiv]M-OMe) | 0.80 | – |
| COC(=O)[C@@H]1CCCN1C(=O)[C@@H](OC(=O)[C@@H]1CCCN1C(=O)[C@@H]1CCCN1C(=O)[C@H](C(C)C)N(C)C(=O)[C@@H](NC(=O)[C@H](C(C)C)N(C)C)C(C)C)C(C)C [Compound 12o] (NMe2Val-V[NMeV]PP[Hiv]P-OMe) | 0.71 | – |
| CC(C)[C@H](NC(=O)[C@H](C(C)C)N(C)C)C(=O)N(C)[C@H](C(=O)N1CCC[C@H]1C(=O)N1CCC[C@H]1C(=O)O[C@H](C(=O)Nc1nccs1)C(C)C)C(C)C [Compound 12p] (NMe2Val-V[NMeV]PP[Hiv]-{NH(thiazol-2-yl)}) | 0.79 | – |
| CC(C)[C@H](NC(=O)[C@H](C(C)C)N(C)C)C(=O)N(C)[C@H](C(=O)N1CCC[C@H]1C(=O)N1CCC[C@H]1C(=O)O[C@H](C(=O)Nc1nc2ccccc2s1)C(C)C)C(C)C [Compound 12q] (NMe2Val-V[NMeV]PP[Hiv]-X3) | 0.77 | – |
| CC(C)[C@H](NC(=O)[C@H](C(C)C)N(C)C)C(=O)N(C)[C@H](C(=O)N1CCC[C@H]1C(=O)N1CCC[C@H]1C(=O)O[C@H](C(=O)Nc1cnc2ccccc2c1)C(C)C)C(C)C [Compound 12r] (NMe2Val-V[NMeV]PP[Hiv]-X2) | 0.78 | – |
| N-[(2S)-O-[(N,N-Dimethyl-valyl)-valyl-(N-methyl-valyl)-prolyl-prolyl]-2-hydroxyisovalerlyl]-2-phenethylamide | – | 71% |
| N-[(2S)-O-[[N-(Bezyloxycarbonyl)-valyl]-(N-methyl-valyl)-prolyl-prolyl]-2-hydroxyisovaleryl]-2-phenethylamide | – | 100% |
